This passage reports AC50 results from PubChem BioAssay AID445 (National Center for Advancing Translational Sciences (NCATS), 2006).

This assay in a line: IkB Signaling. As to conditions: ABC-DLBCL IkBa-CBG/CBR dual luciferase ratio (green luciferase fused to IkBa over red control in OCI-Ly3 lymphoma cells), 4 h. Put shortly: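 Luminescence ratio of IκBα-fused green versus native red beetle luciferase in OCI-Ly3 cells, 4 h post-doxycycline with compound; red signal alone, scaled from basal (0%) to zero light (-100%), flagged nonspecific or cytotoxic effects.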
Where [1] appears, read: measured here: control luc red channel.
[2] abbreviates: measured here: IkB-luc green channel.

The list shows a part of the results. These are further read-outs of the screen, such as a control signal, another cell line or another target. No call is given for them. The list favours compounds with an active or inconclusive main result. The note in brackets gives the kind of curve behind each potency; many fits are weak.

Usually AC50 stands for the midpoint of the concentration-response curve, whichever way the signal moves. For the molecule `Cc1cccc(-n2c(CC3C(=O)Nc4ccc(C)cc43)nc3ccccc3c2=O)c1` (stereo not drawn), under setting [1], the AC50 was 39.8 µM [falling, single point].

Turning to `O=C(c1ccc2c(c1)N(Cc1c(F)cccc1Cl)C(=O)c1ccccc1S2)N1CCC2(CC1)OCCO2`, the AC50 under setting [1] was 12.6 µM [falling, partial curve].

Turning to `Cc1ccc(C)c(CN2C(=O)c3ccccc3Sc3ccc(C(=O)N4CCC5(CC4)OCCO5)cc32)c1`, under setting [1], the AC50 was 20 µM [falling, single point].

Turning to `CN1CC[C@]2(C)c3cc(O)ccc3N(C)[C@@H]12`, the AC50 runs as follows: under setting [2], 31.6 µM [rising, partial curve]; under setting [1], 31.6 µM [falling, partial curve].

On to `Cc1cccc(CN2C(=O)CN=C(c3ccccc3Cl)c3cc(Cl)ccc32)c1`, for which, under setting [1], the AC50 is 15.8 µM [falling, partial curve].

For the molecule `CCOC(=O)c1c(C)n(COCCO)c2ccc(O)cc12`, the AC50 under setting [1] was 3.98 µM [falling, partial curve].

Turning to `C[C@@H]1C[C@@H]([C@H](O)CC2CC(=O)NC(=O)C2)C(=O)[C@@H](C)C1`, the AC50 under setting [1] is 0.631 µM [falling, full curve].

`Cc1ccc(-n2c(/C=C/c3ccccc3)nc3ccccc3c2=O)cc1C`: under setting [1], the AC50 is 10 µM [falling, partial curve].

In the case of `CC(C)(C)c1cc(C=C(C#N)C#N)cc(C(C)(C)C)c1O`, the AC50 runs as follows: under setting [2], 2 µM [falling, full curve]; under setting [1], 0.501 µM [falling, full curve].

As for `CCn1nc(-c2ccccc2)nc2c(=O)n(C)c(=O)nc1-2`, the AC50 was 3.16 µM [rising, partial curve] under setting [2] and 12.6 µM [falling, partial curve] under setting [1].

Take `CC(=O)c1ccc(NC(=O)c2sc3nc4c(cc3c2N)N2CCC4CC2)cc1`: the AC50 under setting [1] is 31.6 µM [falling, single point].

Turning to `CCc1ccc(OCCCN=C(C)c2c(O)n(C)c(=O)n(C)c2=O)cc1`, the half-maximal activity concentration (AC50) under setting [1] is 10 µM [falling, partial curve].

For `Cc1c(C(c2ccc(O)cc2)c2c(O)c3ccccc3oc2=O)c(=O)n(-c2ccccc2)n1C` (stereo not drawn), the AC50 under setting [1] is 2.51 µM [falling, full curve].

With `CCOc1ccc(CN2C(=O)c3ccccc3Sc3ccc(C(=O)N4CCC5(CC4)OCCO5)cc32)cc1`, under setting [1], the AC50 is 12.6 µM [falling, partial curve].

For the molecule `O=c1c2ccccc2nc(/C=C\c2cccc(Br)c2)n1-c1ccc(O)cc1`, the AC50 under setting [1] is 15.8 µM [falling, partial curve].

Turning to `Cc1cccc(-n2c(/C=C/c3cccc4ccccc34)nc3ccccc3c2=O)c1`, the AC50 under setting [1] is 39.8 µM [falling, single point].

Take `CCSc1nnc(NC(=O)c2cccn(Cc3ccc(Cl)cc3)c2=O)s1`: the AC50 under setting [1] is 0.00631 µM [falling, full curve, poor fit].

For the molecule `O=C(Nc1ccc2c(c1)OCO2)c1cccn(Cc2ccc(F)cc2)c1=O`, the AC50 under setting [1] was 12.6 µM [falling, single point].

For `CCOc1ccc(Br)c(C2(O)CC(C)N(C)CC2C)c1` (stereo not drawn), the AC50 under setting [1] is 31.6 µM [falling, partial curve, poor fit].

On to `Cn1c(=O)n(C)c2cc(CNCCc3ccccc3)ccc21`, for which, under setting [1], the AC50 is 25.1 µM [rising, single point].

On to `CCN1CCN(C(=O)COc2ccc(S(=O)(=O)N(C)Cc3ccccc3)cc2)CC1`, for which the AC50 under setting [1] is 15.8 µM [falling, partial curve].

Take `Oc1c(Cl)c(Cl)cc(Cl)c1Cl`: under setting [1], the AC50 was 39.8 µM [falling, single point].

As to `CCCCCCCCCCCCCC(=O)O[C@H]1[C@@H](C)[C@@]2(O)[C@@H](C=C(CO)C[C@]3(O)C(=O)C(C)=C[C@@H]23)C2C(C)(C)[C@]21OC(C)=O` (stereo partly drawn), the AC50 was 0.00251 µM [rising, full curve] under setting [2] and 0.00251 µM [rising, full curve] under setting [1].

Regarding `Ic1ccccc1CN[C@@H]1C2CCN(CC2)[C@H]1C(c1ccccc1)c1ccccc1`, under setting [2], the AC50 was 39.8 µM [falling, partial curve, poor fit].

In the case of `COc1ccccc1-n1c(/C=C/c2ccccc2)nc2ccccc2c1=O`, the AC50 under setting [1] is 31.6 µM [falling, single point].

As to `Nc1ccccc1O.O.O=C(O)[C@H]1[O][Sb][O][C@H]1C(=O)O`, the AC50 under setting [2] is 3.16 µM [rising, partial curve] and the AC50 under setting [1] was 3.98 µM [falling, partial curve].

As for `Cc1oc(-c2ccc(Cl)cc2)nc1CN1C(=O)CN=C(c2ccccc2)c2cc(Cl)ccc21`, under setting [1], the AC50 is 20 µM [falling, single point].

On to `Cc1ccccc1C1=NCC(=O)N(CC(=O)NCc2ccco2)c2sc3c(c21)CCCC3`, for which the AC50 under setting [1] is 15.8 µM [falling, partial curve].

As for `O=C(c1ccc2c(c1)N(Cc1ccc(F)cc1Cl)C(=O)c1ccccc1S2)N1CCC2(CC1)OCCO2`, the AC50 under setting [1] is 25.1 µM [falling, partial curve].

As for `CCCCCCC(C)(C)c1ccc([C@@H]2C[C@H](O)CC[C@@H]2CCCO)c(O)c1`, the AC50 under setting [1] is 15.8 µM [falling, full curve].

For `CN1C[C@H](C(=O)N[C@]2(C)O[C@@]3(O)[C@@H]4CCCN4C(=O)[C@H](Cc4ccccc4)N3C2=O)C=C2c3cccc4[nH]cc(c34)C[C@H]21`, the AC50 under setting [1] was 10 µM [falling, partial curve].

Turning to `Nc1c(C(=O)Nc2ccc(OC(F)(F)F)cc2)sc2nc3c(cc12)N1CCC3CC1`, under setting [1], the AC50 is 31.6 µM [falling, single point].

As to `CCCNc1oc(-c2cccc3ccccc23)nc1C#N`, the AC50 under setting [1] is 3.16 µM [rising, full curve].

Regarding `C[C@@H]1O[C@@H](O[C@H]2C[C@@H](O)[C@]3(CO)[C@@H]4[C@@H](O)C[C@]5(C)[C@H](C6=CC(=O)OC6)CC[C@@]5(O)[C@H]4CC[C@@]3(O)C2)[C@H](O)[C@H](O)[C@@H]1O`, the AC50 under setting [2] is 0.2 µM [falling, full curve].

`O=C1/C(=C\c2ccccc2)C[C@@]2(O)[C@H]3Cc4ccc(O)c5c4[C@@]2(CCN3CC2CC2)[C@@H]1O5`: under setting [1], the AC50 is 3.16 µM [falling, full curve].

As to `CN[C@@H](C)[C@@H](O)c1ccccc1`, the AC50 runs as follows: under setting [2], 15.8 µM [rising, partial curve]; under setting [1], 31.6 µM [falling, partial curve].

For the molecule `N#Cc1cc([N+](=O)[O-])ccc1NC(=O)c1cccn(Cc2cccc(F)c2)c1=O`, under setting [1], the AC50 was 25.1 µM [rising, partial curve].

Regarding `O=C(Nc1ccc2c(c1)OCCO2)c1cccn(Cc2cccc([N+](=O)[O-])c2)c1=O`, the AC50 under setting [1] was 39.8 µM [falling, single point].

Turning to `C=CCN1C(=O)C2(C(C(=O)OCC)=C(N)Oc3c2c(=O)oc2ccccc32)c2ccccc21` (stereo not drawn), the AC50 under setting [1] is 0.398 µM [falling, full curve, poor fit].

For `O=C(CCl)c1ccc(Cl)cc1Cl`, the AC50 reads like this: under setting [2], 1 µM [rising, full curve]; under setting [1], 10 µM [falling, full curve].

On to `COC[C@@H]1OC(=O)c2coc3c2[C@]1(C)C1=C(C3=O)[C@H]2CCC(=O)[C@]2(C)C[C@@H]1OC(C)=O`, for which the AC50 under setting [2] is 6.31 µM [rising, partial curve] and the AC50 under setting [1] is 2.51 µM [rising, full curve].

Consider `CN1CCN(c2csc3ccc(F)cc3c2=O)CC1`, for which the AC50 under setting [1] was 39.8 µM [falling, single point].

On to `COP(=O)(OC)OC=C(Cl)Cl`, for which the AC50 was 39.8 µM [rising, single point] under setting [2] and 0.01 µM [rising, full curve, poor fit] under setting [1].

Regarding `CC(=O)c1c(O)c(C)c(O)c(Cc2c(O)c3c(c(C(=O)/C=C\c4ccccc4)c2O)OC(C)(C)C=C3)c1O`, the AC50 under setting [1] was 12.6 µM [falling, partial curve].

Consider `Cc1nc2cc(F)ccc2n1C1CCN(Cc2nnnn2CCc2ccccc2)CC1`, for which, under setting [1], the AC50 is 25.1 µM [falling, partial curve].

Turning to `N#CC(C#N)=Cc1ccc(O)c(O)c1`, the AC50 under setting [1] was 31.6 µM [falling, partial curve].

As to `Cc1ccc(-n2c(/C=C/c3cc(Br)cs3)nc3ccccc3c2=O)cc1C`, under setting [1], the AC50 is 39.8 µM [falling, single point].

Regarding `C=C(C)[C@H]1Cc2c(ccc3c2O[C@H]2COc4cc(OC)c(OC)cc4[C@@H]2C3=O)O1`, the AC50 under setting [2] is 3.16 µM [rising, full curve].

Turning to `COCCCn1c(N)c(C(=O)NCCC(C)C)c2nc3ccccc3nc21`, the AC50 under setting [1] was 15.8 µM [falling, partial curve].

On to `CC[C@]1(OC(=O)CN)C(=O)OCc2c1cc1n(c2=O)Cc2cc3ccccc3nc2-1`, for which the AC50 under setting [1] is 0.126 µM [falling, full curve].

On to `[Cl-].[Cl-].[Hg+2]`, for which the AC50 reads like this: under setting [2], 0.0398 µM [rising, full curve, poor fit]; under setting [1], 1.26 µM [falling, full curve].

For the molecule `Cn1c(=O)n(C)c2cc(CNCCc3ccccc3F)ccc21`, the AC50 under setting [1] is 20 µM [rising, partial curve].

Consider `Cc1ccc(-n2c(/C=C/c3ccccc3)nc3ccccc3c2=O)cc1Cl`, for which, under setting [1], the AC50 is 20 µM [falling, single point].

Regarding `O=C1CC(c2ccccc2Br)c2c(c3ccccc3oc2=O)O1` (stereo not drawn), under setting [1], the AC50 was 25.1 µM [falling, single point].

As for `Oc1cc2c(cc1O)[C@H]1c3ccccc3CN[C@H]1CC2`, the AC50 under setting [1] is 31.6 µM [falling, partial curve].

Turning to `Fc1ccc(C(OCCN2CCN(C/C=C\c3ccccc3)CC2)c2ccc(F)cc2)cc1`, the AC50 under setting [1] is 31.6 µM [falling, partial curve].

As for `COc1cc2ccccc2c2cc([N+](=O)[O-])oc12`, under setting [1], the concentration at half-maximal activity (AC50) is 3.98 µM [falling, partial curve].

Turning to `CC(=O)O[C@H]1C[C@@H](O[C@@H]2[C@H](C)O[C@H](O[C@@H]3[C@H](C)O[C@H](O[C@@H]4CC[C@@]5(C)[C@@H](CC[C@]6(C)[C@]5(C)C[C@H](O)[C@]5(C)[C@@H](C7=CC(=O)OC7)CC[C@@]56O)C4)C[C@@H]3O)C[C@@H]2O)O[C@@H](C)[C@H]1O[C@H]1O[C@@H](CO)[C@@H](O)[C@@H](O)[C@@H]1O`, the AC50 under setting [1] is 2 µM [falling, full curve, poor fit].
